Results are given in words; binding and its absence hold for the method and conditions named. Binding seen in cells or lysates may run through a third protein. A yes stands for co-enrichment or nearness to the bait. Other partners may have been found. Tags and fused reporters may be left off the sequences shown. Each block holds one binder with its values, some of them ahead of it.
Molecular target: T1, C-terminal FLAG-tagged mouse WDR72 (WD repeat-containing protein 72) (mouse) (UniProt D3YYM4)
T1 sequence: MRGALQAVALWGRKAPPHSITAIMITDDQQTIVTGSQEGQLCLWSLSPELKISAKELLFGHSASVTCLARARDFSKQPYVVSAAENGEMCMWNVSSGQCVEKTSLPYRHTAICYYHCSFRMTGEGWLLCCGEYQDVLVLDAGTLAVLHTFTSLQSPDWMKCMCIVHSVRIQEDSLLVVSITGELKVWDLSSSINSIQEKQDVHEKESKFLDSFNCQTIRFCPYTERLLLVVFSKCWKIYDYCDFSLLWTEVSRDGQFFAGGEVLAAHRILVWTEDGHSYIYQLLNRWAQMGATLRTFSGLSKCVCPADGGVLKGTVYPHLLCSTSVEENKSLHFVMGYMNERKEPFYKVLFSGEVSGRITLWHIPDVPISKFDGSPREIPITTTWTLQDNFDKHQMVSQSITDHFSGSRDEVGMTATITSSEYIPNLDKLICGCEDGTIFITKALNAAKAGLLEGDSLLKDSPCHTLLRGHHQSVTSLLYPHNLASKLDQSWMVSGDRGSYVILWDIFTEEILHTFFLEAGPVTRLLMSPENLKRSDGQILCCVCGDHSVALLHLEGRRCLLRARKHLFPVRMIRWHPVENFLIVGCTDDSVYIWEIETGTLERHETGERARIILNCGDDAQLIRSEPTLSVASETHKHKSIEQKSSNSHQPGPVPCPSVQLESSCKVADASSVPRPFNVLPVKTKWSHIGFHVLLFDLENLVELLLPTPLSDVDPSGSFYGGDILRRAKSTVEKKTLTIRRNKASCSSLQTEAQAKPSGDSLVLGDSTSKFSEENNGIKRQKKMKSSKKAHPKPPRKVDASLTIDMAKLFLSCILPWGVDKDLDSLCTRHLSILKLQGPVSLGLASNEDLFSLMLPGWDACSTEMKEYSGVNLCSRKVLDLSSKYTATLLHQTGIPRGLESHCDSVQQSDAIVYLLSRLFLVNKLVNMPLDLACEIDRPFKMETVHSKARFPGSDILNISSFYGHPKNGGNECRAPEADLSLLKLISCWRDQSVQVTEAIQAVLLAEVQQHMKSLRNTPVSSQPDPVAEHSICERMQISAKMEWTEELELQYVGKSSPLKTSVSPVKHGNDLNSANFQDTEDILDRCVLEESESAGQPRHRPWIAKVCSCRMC
Experiment: affinity purification with mass spectrometry; C-terminal FLAG-tagged mouse WDR72 overexpressed in HEK293; NP40 lysate; anti-FLAG antibody on protein A Dynabeads, 30 min at room temperature, washed twice; six CBB-stained bands cut from the SDS-PAGE gel, trypsin, LC-MS/MS

binding: binds
B1: CDC40 (protein, UniProt O60508 1-579)
chain: MSAAIAALAASYGSGSGSESDSDSESSRCPLPAADSLMHLTKSPSSKPSLAVAVDSAPEVAVKEDLETGVHLDPAVKEVQYNPTYETMFAPEFGPENPFRTQQMAAPRNMLSGYAEPAHINDFMFEQQRRTFATYGYALDPSLDNHQVSAKYIGSVEEAEKNQGLTVFETGQKKTEKRKKFKENDASNIDGFLGPWAKYVDEKDVAKPSEEEQKELDEITAKRQKKGKQEEEKPGEEKTILHVKEMYDYQGRSYLHIPQDVGVNLRSTMPPEKCYLPKKQIHVWSGHTKGVSAVRLFPLSGHLLLSCSMDCKIKLWEVYGERRCLRTFIGHSKAVRDICFNTAGTQFLSAAYDRYLKLWDTETGQCISRFTNRKVPYCVKFNPDEDKQNLFVAGMSDKKIVQWDIRSGEIVQEYDRHLGAVNTIVFVDENRRFVSTSDDKSLRVWEWDIPVDFKYIAEPSMHSMPAVTLSPNGKWLACQSMDNQILIFGAQNRFRLNKKKIFKGHMVAGYACQVDFSPDMSYVISGDGNGKLNIWDWKTTKLYSRFKAHDKVCIGAVWHPHETSKVITCGWDGLIKLWD

binding: binds
B2: AQR (protein, UniProt O60306 1-1485)
chain: MAAPAQPKKIVAPTVSQINAEFVTQLACKYWAPHIKKKSPFDIKVIEDIYEKEIVKSRFAIRKIMLLEFSQYLENYLWMNYSPEVSSKAYLMSICCMVNEKFRENVPAWEIFKKKPDHFPFFFKHILKAALAETDGEFSLHEQTVLLLFLDHCFNSLEVDLIRSQVQQLISLPMWMGLQLARLELELKKTPKLRKFWNLIKKNDEKMDPEAREQAYQERRFLSQLIQKFISVLKSVPLSEPVTMDKVHYCERFIELMIDLEALLPTRRWFNTILDDSHLLVHCYLSNLVRREEDGHLFSQLLDMLKFYTGFEINDQTGNALTENEMTTIHYDRITSLQRAAFAHFPELYDFALSNVAEVDTRESLVKFFGPLSSNTLHQVASYLCLLPTLPKNEDTTFDKEFLLELLVSRHERRISQIQQLNQMPLYPTEKIIWDENIVPTEYYSGEGCLALPKLNLQFLTLHDYLLRNFNLFRLESTYEIRQDIEDSVSRMKPWQSEYGGVVFGGWARMAQPIVAFTVVEVAKPNIGENWPTRVRADVTINLNVRDHIKDEWEGLRKHDVCFLITVRPTKPYGTKFDRRRPFIEQVGLVYVRGCEIQGMLDDKGRVIEDGPEPRPNLRGESRTFRVFLDPNQYQQDMTNTIQNGAEDVYETFNIIMRRKPKENNFKAVLETIRNLMNTDCVVPDWLHDIILGYGDPSSAHYSKMPNQIATLDFNDTFLSIEHLKASFPGHNVKVTVEDPALQIPPFRITFPVRSGKGKKRKDADVEDEDTEEAKTLIVEPHVIPNRGPYPYNQPKRNTIQFTHTQIEAIRAGMQPGLTMVVGPPGTGKTDVAVQIISNIYHNFPEQRTLIVTHSNQALNQLFEKIMALDIDERHLLRLGHGEEELETEKDFSRYGRVNYVLARRIELLEEVKRLQKSLGVPGDASYTCETAGYFFLYQVMSRWEEYISKVKNKGSTLPDVTEVSTFFPFHEYFANAPQPIFKGRSYEEDMEIAEGCFRHIKKIFTQLEEFRASELLRSGLDRSKYLLVKEAKIIAMTCTHAALKRHDLVKLGFKYDNILMEEAAQILEIETFIPLLLQNPQDGFSRLKRWIMIGDHHQLPPVIKNMAFQKYSNMEQSLFTRFVRVGVPTVDLDAQGRARASLCNLYNWRYKNLGNLPHVQLLPEFSTANAGLLYDFQLINVEDFQGVGESEPNPYFYQNLGEAEYVVALFMYMCLLGYPADKISILTTYNGQKHLIRDIINRRCGNNPLIGRPNKVTTVDRFQGQQNDYILLSLVRTRAVGHLRDVRRLVVAMSRARLGLYIFARVSLFQNCFELTPAFSQLTARPLHLHIIPTEPFPTTRKNGERPSHEVQIIKNMPQMANFVYNMYMHLIQTTHHYHQTLLQLPPAMVEEGEEVQNQETELETEEEAMTVQADIIPSPTDTSCRQETPAFQTDTTPSETGATSTPEAIPALSETTPTVVGAVSAPAEANTPQDATSAPEETK
